No constants are given. Whether binding was seen depends on the method and setting. In cells and extracts the contact can be indirect. Some results given as binding are weak or reduced against the parent protein; the word gives no strength.
Target: JAZ1-His (rice) (UniProt Q7XPM8)
Assay: pull-down; competitive binding, called His-tag pull-down in the legend; GATA19-V5 at ratios of 1:50:500 incubated 1 h with JAZ1-His, then MYC2-Flag added for another hour; Western blot

Chains of the proteins cited; added tags and fusions are not shown.
UniProt Q7XPM8: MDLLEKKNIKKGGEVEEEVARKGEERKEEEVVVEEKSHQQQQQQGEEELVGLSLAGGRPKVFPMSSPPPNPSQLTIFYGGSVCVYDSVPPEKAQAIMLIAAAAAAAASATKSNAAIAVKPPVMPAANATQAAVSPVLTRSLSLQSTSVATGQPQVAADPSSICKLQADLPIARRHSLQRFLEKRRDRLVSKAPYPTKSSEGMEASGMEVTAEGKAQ
UniProt Q336P5: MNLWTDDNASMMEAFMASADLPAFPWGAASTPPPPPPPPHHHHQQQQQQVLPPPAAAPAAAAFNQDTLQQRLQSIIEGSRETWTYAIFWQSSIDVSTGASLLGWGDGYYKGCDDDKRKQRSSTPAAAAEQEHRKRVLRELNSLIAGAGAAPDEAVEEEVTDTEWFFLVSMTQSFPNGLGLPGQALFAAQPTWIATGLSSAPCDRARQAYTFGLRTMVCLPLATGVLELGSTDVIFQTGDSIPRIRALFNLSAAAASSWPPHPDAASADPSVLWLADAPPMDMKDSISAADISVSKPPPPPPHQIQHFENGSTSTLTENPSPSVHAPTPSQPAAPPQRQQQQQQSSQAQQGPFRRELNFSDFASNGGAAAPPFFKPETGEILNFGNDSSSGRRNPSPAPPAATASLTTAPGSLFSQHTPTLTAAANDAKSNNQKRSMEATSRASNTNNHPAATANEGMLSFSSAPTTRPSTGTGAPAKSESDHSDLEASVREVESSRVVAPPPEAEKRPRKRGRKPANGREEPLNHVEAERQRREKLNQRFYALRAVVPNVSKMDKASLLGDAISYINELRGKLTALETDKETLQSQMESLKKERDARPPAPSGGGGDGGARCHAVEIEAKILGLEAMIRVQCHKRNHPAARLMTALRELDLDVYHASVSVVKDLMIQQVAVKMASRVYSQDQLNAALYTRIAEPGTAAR

Substance: MYC2-Flag (from UniProt Q336P5 1-699)
- binding: binds

Reference: publication PMC12048567
